According to publication PMC12040169 (PLOS Biology, 2025):
The other results are listed elsewhere or left out.

Each compound was assayed on T1, CTL2-GFP (C. trachomatis L2/434/Bu, GFP-expressing). Details: bulk GFP, single well; 28.5 h, 10 µM; inhibitor.
T1 construct: L2/434/Bu, GFP-expressing
Set-up: species or system HeLa; Intracellular C. trachomatis growth in HeLa cells, bulk GFP fluorescence relative to DMSO

SMILES	% of control remaining
COc1ccc2c(Cl)c(C(=O)NCCc3ccc(S(N)(=O)=O)cc3)sc2c1 [CBK268120]	125.695%
CC(=O)NCCC(=O)Nc1cc(C)ccc1C [CBK306115]	130.787%
CNC(=O)c1sc2ccccc2c1C1CCN(Cc2ccc(OC)c(OC(C)C)c2)C1 (stereo not shown) [CBK285928]	121.625%
COc1ccc(CCn2cncc2-c2cnn(C)c2)cc1C [CBK281457]	101.492%
CC(=O)Nc1ccc2nc(Nc3nc4c(F)cc(F)cc4s3)sc2c1 [CBK287489]	145.707%
O=C(NCCCN1CCCCC1)C1CC(=O)N(Cc2ccco2)C1 (stereo not shown) [CBK305145]	107.312%
CCN(CC)CC(O)Cn1c(-c2cccc([N+](=O)[O-])c2)nc(=S)c2c1CCCC2 (stereo not shown) [CBK265700]	111.351%
COCCNc1nc(-c2ccc3c(c2)OCO3)ccc1C(=O)N(C)CCN(C)C [CBK105915]	109.21%
CCc1nc(CN2CCCC(NC(C(N)=O)c3ccccc3)C2)no1 (stereo not shown) [CBK305348]	113.351%
COCc1nnc(Sc2nccnc2N2CCCC2)s1 [CBK093736]	103.057%
CC(NC(=O)N(C)Cc1ccc2ccccc2n1)c1nncn1C(C)C (stereo not shown) [CBK307197]	94.5983%
O=C(NCc1ccccc1)c1cccc(NC(=O)c2cc(-c3ccccn3)nc3ccc(Cl)cc23)c1 [CBK267768]	149.321%
COCCCNC(=O)c1cnn2c(C)c(Cc3cccc(F)c3)c(C)nc12 [CBK162126]	78.6522%
CC(CCc1ccccc1)NC(=O)C(C)Sc1nnc(-c2cccs2)n1C1CC1 (stereo not shown) [CBK297131]	125.528%
O=C(CSc1oc(-c2ccco2)nc1S(=O)(=O)c1ccccc1)c1ccccc1 [CBK268424]	128.471%
CC(=O)Nc1ccc(CN(C)c2c(C)nc3ccc(C(=O)N(C)CCN(C)C)cn23)cc1 [CBK147107]	111.321%
Cc1nnc(N/N=C\c2c(Cl)cccc2Cl)[nH]c1=O [CBK027921]	112.007%
CC(C)(C)OC(=O)N1CCC(C2OCc3cc(-c4ccc(C(=O)N5CCOCC5)o4)ccc3O2)CC1 (stereo not shown) [CBK173615]	111.946%
COc1ccc2[nH]cc(CCNC(=O)c3cc(-c4cccc(NC(C)=O)c4)cnc3N(C)S(C)(=O)=O)c2c1 [CBK076599]	164.643%
C#CCN1CC[C@]2(c3ccc(OC)c(OC)c3)CC[C@@H](NC(=O)Nc3ccc(F)c(F)c3)C[C@H]12 [CBK056657]	55.9504%
CC(C)C(=O)Nc1ccc2c(-c3ccccc3)ccnc2n1 [CBK073671]	135.034%
O=C(O)C1CCCCN1S(=O)(=O)c1ccc(Br)cc1 (stereo not shown) [CBK101789]	116.516%
Nc1ncc(-c2cccc3ncccc23)nc1N1CCC[C@@H]1CO [CBK063441]	164.627%
Cc1cc(F)c(S(N)(=O)=O)cc1NC(=O)c1cccc(Br)c1 [CBK051488]	83.3794%
O=C(Nc1cccc(Cl)c1Cl)c1cccs1 [CBK057672]	88.5908%
CCOC(=O)C1CCN(S(=O)(=O)c2ccc(C(C)C)cc2)CC1 [CBK200044]	100.831%
Oc1ccc(/C=N/Nc2nnc(-c3ccccc3)c(-c3ccccc3)n2)cc1 [CBK262011]	116.871%

Filtered by structure: the compounds so far containing an aryl methoxy group.
SMILES	% of control remaining
COc1ccc2c(Cl)c(C(=O)NCCc3ccc(S(N)(=O)=O)cc3)sc2c1 [CBK268120]	125.695%
CNC(=O)c1sc2ccccc2c1C1CCN(Cc2ccc(OC)c(OC(C)C)c2)C1 (stereo not shown) [CBK285928]	121.625%
COc1ccc(CCn2cncc2-c2cnn(C)c2)cc1C [CBK281457]	101.492%
COc1ccc2[nH]cc(CCNC(=O)c3cc(-c4cccc(NC(C)=O)c4)cnc3N(C)S(C)(=O)=O)c2c1 [CBK076599]	164.643%
C#CCN1CC[C@]2(c3ccc(OC)c(OC)c3)CC[C@@H](NC(=O)Nc3ccc(F)c(F)c3)C[C@H]12 [CBK056657]	55.9504%

Next part

SMILES	% of control remaining
O=C(CN1CCC(c2ccc(F)cc2)CC1)NCc1ccco1 [CBK283641]	109.94%
CN1CC(=O)N(c2ccc(Cl)cc2Cl)C1=O [CBK116319]	111.487%
COc1ccc(-c2cn(C[C@H]3CC4CCN3C[C@@H]4C(=O)NC3CCCCC3)nn2)cc1 (stereo partly shown) [CBK289084]	138.199%
CC(C(=O)Nc1ccc(S(N)(=O)=O)cc1)N(C)Cc1cccs1 (stereo not shown) [CBK305945]	122.836%
Cc1csc2c(C3CCCN(C(=O)C4CC4)C3)nc(C)n12 (stereo not shown) [CBK285212]	103.337%
Cc1cc(CNC(=S)Nc2ccc(S(N)(=O)=O)cc2)nn1C [CBK267077]	83.8241%
CCCC/C=C/c1cnc(N2CCOCC2)c2nccn12 [CBK091256]	92.5253%
CCCCOC(=O)c1ccc(N2C(=O)CC(N3CCN(c4ccc(F)cc4)CC3)C2=O)cc1 (stereo not shown) [CBK265527]	111.617%
O=C(CSc1nnc2c(n1)[nH]c1ccccc12)Nc1ccccc1[N+](=O)[O-] [CBK263195]	99.3307%
COC1(CNC(=O)c2cc3ccccc3[nH]2)CCSC1 (stereo not shown) [CBK304605]	134.528%
Cc1cc(O)n2nc(CC(=O)NCc3nnc4n3CCCCC4)nc2n1 [CBK306989]	110.752%
CS(=O)(=O)N1CCCC(C(=O)Nc2cccc3cccnc23)C1 (stereo not shown) [CBK299783]	83.2635%
CC1CCCCC12NC(=O)N(Cc1csc(-c3cccs3)n1)C2=O (stereo not shown) [CBK305829]	140.445%
Cn1c2c(ccc1=O)CCCCC2 [CBK005987]	128.782%
CNC(=O)C1(Cc2ccccc2-c2ccccc2)CCN(C(=O)Cc2ccc(C)cc2)CC1 [CBK286274]	109.276%
Cc1cccc(CNc2nccnc2-c2ccncc2)c1 [CBK037453]	104.18%
CC(C)OC(=O)N1CCC(C(=O)NC(c2ccccc2)c2ccc3ccccc3n2)CC1 (stereo not shown) [CBK059642]	158.894%
CNCCc1nc(-c2ccc(F)cc2)c2cnccn12 [CBK035927]	204.321%
O=C(O)C1Cc2ccccc2CN1C(=O)c1ccccc1 (stereo not shown) [CBK286628]	97.8958%
FC(F)(F)c1ccc(N2CCNCC2)nc1OCCOc1ccc2ccccc2c1 [CBK200002A]	61.7688%
NC(=O)c1c(NC(=O)c2nc3ccccc3s2)sc2c1CCCCC2 [CBK287566]	127.921%
Clc1cncc(OCCCCOc2ccccc2)n1 [CBK176018]	87.605%
CC(=O)Nc1ccc(S(=O)(=O)NCc2ccc3[nH]c4c(c3c2)CCCC4)cc1 [CBK267122]	163.048%
CCc1cc2cc3c(cc2nc1SCC(=O)Nc1nc(C)c(C)s1)OCO3 [CBK108548]	100%
COc1cccc(CNCc2ccccc2[N+](=O)[O-])c1OC [CBK262198]	89.6634%
Cc1cc(C(=O)N2CCN(C(=O)c3ccco3)CC2)n[nH]1 [CBK144447]	103.775%
Cc1ccccc1-n1nc(C)c(CN2CCC(O)C(C)C2)c1C (stereo not shown) [CBK282739]	134.663%

SMILES	% of control remaining
Cc1cc(NS(=O)(=O)c2ccc(NC(=O)c3ccc(Br)cc3)cc2)no1 [CBK265371]	116.892%
COc1ccc(OCC(=O)Nc2cccc(-c3nnc4c5ccccc5c(C)nn34)c2)cc1 [CBK266743]	127.559%
Cc1nn(CCC(=O)NC(C)Cc2ccccn2)c(C)c1Cl (stereo not shown) [CBK281419]	115.104%
N#Cc1ccccc1C(=O)N(CCO)Cc1ccccc1 [CBK304844]	114.464%
Cc1ccc(N(Cc2ccco2)C(=O)c2cccc(S(=O)(=O)N3CCOCC3)c2)cc1 [CBK265857]	120.242%
CO[C@@]12CC[C@@H](OCC3CC3)C[C@@H]1N(Cc1c(C)cnn1C)CC2 [CBK307072]	154.629%
CC(=O)c1ccccc1-c1ccc(C(=O)NCCc2ccccn2)c(NCC2CC2)n1 [CBK076580]	86.874%
CCN1CCN(c2ncnc3c2cnn3-c2cccc(C)c2)CC1 [CBK265814]	194.856%
CCn1c(SCC(=O)Nc2ccc(C(=O)O)cc2)nnc1-c1ccccc1C [CBK265927]	97.8652%
O=C(c1ccccn1)N1CCCC(n2cnc3cc(F)ccc32)C1 (stereo not shown) [CBK284476]	126.58%
COc1ccc(F)cc1S(=O)(=O)Nc1cccc(C)n1 [CBK268842]	128.815%
O=C1CCCN1CCOc1nccnc1/C=C/c1ccccc1 [CBK106875]	124.395%
COC(=O)c1ccc(NC(=S)N2CCC(C(N)=O)CC2)cc1 [CBK267232]	140.605%
CSc1oc(-c2ccccc2)nc1C(N)=O [CBK067744]	111.404%
Cc1ccc2[nH]c3c(c2c1)CCNC31CCN(C(=O)CC(C)CC(=O)O)CC1 (stereo not shown) [CBK047196]	169.878%
O=C(O)c1snnc1-c1ccccc1 [CBK021545]	139.357%
COc1ccc(S(=O)(=O)Nc2ccc3oc(-c4ccccc4F)cc(=O)c3c2)cc1 [CBK300518]	91.8193%
CCOC(=O)C(NC(=O)CCn1ccc2ccncc21)C(C)C (stereo not shown) [CBK284719]	130.545%
CCC(c1cccnc1)N(C)C(=O)c1ccc(=O)n(C)c1 (stereo not shown) [CBK306802]	109.226%
O=C(CC1c2ccccc2Oc2ccccc21)N1CCc2nc3ccccc3c(=O)n2CC1 [CBK286314]	102.22%
C=CCn1c(Cc2csc(NC(=O)CCc3nc4ccccc4c(=O)[nH]3)n2)n[nH]c1=S [CBK297888]	135.333%
Cc1nc(C(=O)N2CCn3nc(C(O)c4ccccc4)cc3C2)c(C)s1 (stereo not shown) [CBK307474]	141.304%
O=C(NCCCc1ccccn1)c1cc(C2CCCCC2)no1 [CBK283296]	127.614%
CN(Cc1cccnc1)C(=O)CSC(c1ccccc1)c1ccccc1 [CBK298284]	136.528%
O=C1Cc2ccccc2C2(CCN(C(=O)NCc3cccc(F)c3)CC2)N1 [CBK047288]	102.388%
